These are yes or no findings as the source states them, for the method shown. In cells and extracts the contact can be indirect. Some binding calls cover weakened binding; strength is not graded here. Sequences can lack the tags named with a protein.
T1: Halo-C16orf87 (N-terminally Halo-tagged MHAP1) (human) (UniProt Q6PH81)
T1 sequence: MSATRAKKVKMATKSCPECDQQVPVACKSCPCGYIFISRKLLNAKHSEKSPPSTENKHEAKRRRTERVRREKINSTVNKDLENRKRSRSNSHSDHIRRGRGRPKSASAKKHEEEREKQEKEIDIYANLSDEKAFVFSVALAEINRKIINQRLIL

Chains of the proteins cited; added tags and fusions are not shown.
UniProt Q92769: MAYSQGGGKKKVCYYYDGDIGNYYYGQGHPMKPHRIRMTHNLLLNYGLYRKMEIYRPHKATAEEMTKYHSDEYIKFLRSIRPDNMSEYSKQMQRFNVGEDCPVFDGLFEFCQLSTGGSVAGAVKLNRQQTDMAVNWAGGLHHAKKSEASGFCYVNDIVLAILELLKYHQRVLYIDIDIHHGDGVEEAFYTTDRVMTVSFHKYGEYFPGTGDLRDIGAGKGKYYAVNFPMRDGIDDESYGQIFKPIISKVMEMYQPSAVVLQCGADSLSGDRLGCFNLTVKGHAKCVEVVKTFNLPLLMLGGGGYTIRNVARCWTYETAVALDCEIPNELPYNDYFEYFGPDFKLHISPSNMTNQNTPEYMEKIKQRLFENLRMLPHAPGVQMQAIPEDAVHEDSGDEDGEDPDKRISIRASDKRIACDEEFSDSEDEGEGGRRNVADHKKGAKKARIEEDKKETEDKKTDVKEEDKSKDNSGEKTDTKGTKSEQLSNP

T2: Halo-SUDS3 (UniProt Q9H7L9)
T2 sequence: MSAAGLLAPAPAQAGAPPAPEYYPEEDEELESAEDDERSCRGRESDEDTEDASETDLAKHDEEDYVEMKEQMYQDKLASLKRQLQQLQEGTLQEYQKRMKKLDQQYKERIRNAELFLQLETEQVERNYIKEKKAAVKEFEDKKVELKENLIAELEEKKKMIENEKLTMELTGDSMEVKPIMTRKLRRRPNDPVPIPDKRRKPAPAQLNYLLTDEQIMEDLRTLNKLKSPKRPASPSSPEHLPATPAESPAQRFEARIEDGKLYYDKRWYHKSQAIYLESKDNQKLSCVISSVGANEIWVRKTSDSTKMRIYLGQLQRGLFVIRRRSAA

T3: Halo-SIN3A (UniProt Q96ST3)
T3 sequence: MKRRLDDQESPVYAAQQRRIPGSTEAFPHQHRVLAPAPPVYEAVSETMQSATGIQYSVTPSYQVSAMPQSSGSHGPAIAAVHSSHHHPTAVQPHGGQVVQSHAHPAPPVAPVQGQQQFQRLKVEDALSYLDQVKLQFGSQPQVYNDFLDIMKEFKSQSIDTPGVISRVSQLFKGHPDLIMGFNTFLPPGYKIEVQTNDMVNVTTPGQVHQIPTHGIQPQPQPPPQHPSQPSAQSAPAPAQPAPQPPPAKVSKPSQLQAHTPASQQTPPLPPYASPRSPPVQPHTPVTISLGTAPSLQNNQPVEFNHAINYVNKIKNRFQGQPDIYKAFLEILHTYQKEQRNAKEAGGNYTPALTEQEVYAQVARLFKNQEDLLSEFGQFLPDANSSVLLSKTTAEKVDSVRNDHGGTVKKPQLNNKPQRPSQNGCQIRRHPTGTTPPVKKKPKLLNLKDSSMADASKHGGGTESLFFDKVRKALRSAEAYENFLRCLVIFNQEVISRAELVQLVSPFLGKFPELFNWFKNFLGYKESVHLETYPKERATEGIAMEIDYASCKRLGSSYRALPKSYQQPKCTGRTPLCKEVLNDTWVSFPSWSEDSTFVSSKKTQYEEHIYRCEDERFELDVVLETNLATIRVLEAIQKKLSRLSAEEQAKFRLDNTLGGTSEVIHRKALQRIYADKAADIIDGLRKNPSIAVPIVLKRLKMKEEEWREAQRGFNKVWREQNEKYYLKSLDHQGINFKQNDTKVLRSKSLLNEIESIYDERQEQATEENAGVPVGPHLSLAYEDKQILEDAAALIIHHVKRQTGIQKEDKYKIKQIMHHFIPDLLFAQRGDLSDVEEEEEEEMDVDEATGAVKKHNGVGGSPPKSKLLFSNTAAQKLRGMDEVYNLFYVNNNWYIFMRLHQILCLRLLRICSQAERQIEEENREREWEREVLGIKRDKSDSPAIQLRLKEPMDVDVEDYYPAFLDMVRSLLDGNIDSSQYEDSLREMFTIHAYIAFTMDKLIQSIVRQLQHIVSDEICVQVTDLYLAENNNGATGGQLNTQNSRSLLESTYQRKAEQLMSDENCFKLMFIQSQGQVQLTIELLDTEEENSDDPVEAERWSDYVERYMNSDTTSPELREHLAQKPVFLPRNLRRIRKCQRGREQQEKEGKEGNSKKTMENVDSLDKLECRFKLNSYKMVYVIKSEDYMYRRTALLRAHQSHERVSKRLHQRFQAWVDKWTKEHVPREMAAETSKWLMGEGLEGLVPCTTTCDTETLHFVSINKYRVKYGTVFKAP

T4: Halo-MIER1b (human) (UniProt Q8N108)
T4 sequence: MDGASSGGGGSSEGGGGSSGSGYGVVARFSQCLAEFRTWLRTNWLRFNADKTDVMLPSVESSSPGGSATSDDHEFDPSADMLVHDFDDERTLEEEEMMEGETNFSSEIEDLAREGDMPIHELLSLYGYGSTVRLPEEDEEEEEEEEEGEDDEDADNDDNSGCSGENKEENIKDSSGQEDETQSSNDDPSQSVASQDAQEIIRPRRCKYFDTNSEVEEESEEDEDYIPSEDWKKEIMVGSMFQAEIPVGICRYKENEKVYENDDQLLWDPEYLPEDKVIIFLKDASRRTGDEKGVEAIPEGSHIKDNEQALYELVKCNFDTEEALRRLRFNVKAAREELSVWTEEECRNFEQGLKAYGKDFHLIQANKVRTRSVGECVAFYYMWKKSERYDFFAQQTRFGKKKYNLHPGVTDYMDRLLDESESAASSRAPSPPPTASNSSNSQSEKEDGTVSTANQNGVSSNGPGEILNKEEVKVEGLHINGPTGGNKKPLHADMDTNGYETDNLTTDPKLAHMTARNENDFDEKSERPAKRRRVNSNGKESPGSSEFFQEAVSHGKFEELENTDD

T5: Halo-SAP30 (UniProt O75446)
T5 sequence: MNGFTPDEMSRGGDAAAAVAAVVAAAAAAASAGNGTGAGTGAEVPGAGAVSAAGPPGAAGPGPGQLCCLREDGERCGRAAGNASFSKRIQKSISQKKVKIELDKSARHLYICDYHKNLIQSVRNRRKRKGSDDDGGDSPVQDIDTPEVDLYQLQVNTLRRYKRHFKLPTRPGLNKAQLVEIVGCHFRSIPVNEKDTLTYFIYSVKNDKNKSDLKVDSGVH


How the values were obtained:
[1] = biological target: T1, Halo-C16orf87 (N-terminally Halo-tagged MHAP1) (human); experiment: cross-linking; XL-MS: Halo-MHAP1 affinity purification from HEK293T, three biological replicates; 5 mM DSSO added while the proteins were on the Magne HaloTag beads, 40 min at room temperature; AcTEV elution; XlinkX, FDR 0.01
HDAC2-Halo (human) [2] = biological target: HDAC2-Halo (human) (UniProt Q92769); experiment: FRET or BRET; acceptor photobleaching FRET (AP-FRET) in co-transiently transfected HEK293T cells; donor SNAP-Cell 505-Star on the SNAP tag, acceptor HaloTag TMR on the HaloTag; nuclei bleached at 561 nm
HDAC2-Halo (human) [3] = biological target: HDAC2-Halo (human) (UniProt Q92769); experiment: pull-down; Halo pulldown from lysates of HEK293T cells co-transiently expressing SNAP-FLAG-C16orf87 and a Halo-tagged bait; eluates by SDS-PAGE and Western blot (anti-FLAG, anti-Halo)
Halo-SUDS3 = biological target: T2, Halo-SUDS3; experiment: as above
Halo-SIN3A = biological target: T3, Halo-SIN3A; experiment: as above
Halo-MIER1b (human) = biological target: T4, Halo-MIER1b (human); experiment: as above
Halo-SAP30 = biological target: T5, Halo-SAP30; experiment: as above

Molecule | binding [1] | binding (HDAC2-Halo (human) [2]) | binding (HDAC2-Halo (human) [3]) | binding (Halo-SUDS3) | binding (Halo-SIN3A) | binding (Halo-MIER1b (human)) | binding (Halo-SAP30)
HDAC2 (endogenous, co-purified with Halo-MHAP1) (from UniProt Q92769 1-488) (enzyme) | binds |  |  |  |  |  | 
SNAP-Flag-C16orf87 (protein, UniProt Q6PH81-1 1-154, SNAP-Cell 505-Star ligand on the SNAP tag (AP-FRET)) MSATRAKKVKMATKSCPECDQQVPVACKSCPCGYIFISRKLLNAKHSEKSPPSTENKHEAKRRRTERVRREKINSTVNKDLENRKRSRSNSHSDHIRRGRGRPKSASAKKHEEEREKQEKEIDIYANLSDEKAFVFSVALAEINRKIINQRLIL |  | binds | binds | no binding | no binding | binds | no binding

Reference: publication doi:10.1101/2025.08.08.669391
